Data published in the supplement of paper PMC10849652.
The list shows a part of the results.

Chains of the proteins cited; added tags and fusions are not shown. Lines headed by an entry give the natural chain unless they say otherwise; changes in a name come on top.
UniProt Q96HE7: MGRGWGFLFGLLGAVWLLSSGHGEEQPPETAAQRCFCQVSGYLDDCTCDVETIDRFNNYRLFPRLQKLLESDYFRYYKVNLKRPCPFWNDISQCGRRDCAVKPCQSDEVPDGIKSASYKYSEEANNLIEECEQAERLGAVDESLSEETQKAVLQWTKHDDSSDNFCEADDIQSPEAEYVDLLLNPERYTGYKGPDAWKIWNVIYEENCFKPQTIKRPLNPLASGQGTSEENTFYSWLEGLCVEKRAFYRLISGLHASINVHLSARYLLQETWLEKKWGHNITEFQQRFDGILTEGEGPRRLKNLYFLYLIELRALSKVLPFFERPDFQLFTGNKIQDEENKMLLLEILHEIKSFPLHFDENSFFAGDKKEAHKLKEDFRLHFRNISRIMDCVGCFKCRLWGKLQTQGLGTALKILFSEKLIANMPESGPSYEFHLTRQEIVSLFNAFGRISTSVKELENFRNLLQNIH
UniProt Q99504: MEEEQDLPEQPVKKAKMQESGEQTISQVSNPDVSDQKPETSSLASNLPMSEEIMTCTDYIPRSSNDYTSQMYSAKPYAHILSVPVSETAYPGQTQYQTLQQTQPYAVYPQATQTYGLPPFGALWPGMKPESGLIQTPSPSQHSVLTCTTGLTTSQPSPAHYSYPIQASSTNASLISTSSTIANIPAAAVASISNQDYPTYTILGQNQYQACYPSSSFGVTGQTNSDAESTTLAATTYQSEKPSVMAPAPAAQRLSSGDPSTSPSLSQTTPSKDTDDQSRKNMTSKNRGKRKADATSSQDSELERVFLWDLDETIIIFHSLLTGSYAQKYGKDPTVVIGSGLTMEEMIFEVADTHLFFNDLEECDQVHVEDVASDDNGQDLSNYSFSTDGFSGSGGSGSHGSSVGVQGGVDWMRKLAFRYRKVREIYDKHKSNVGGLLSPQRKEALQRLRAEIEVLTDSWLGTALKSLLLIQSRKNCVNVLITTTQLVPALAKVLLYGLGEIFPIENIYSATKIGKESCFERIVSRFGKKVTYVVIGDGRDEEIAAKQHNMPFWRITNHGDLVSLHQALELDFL
UniProt Q9UPT5: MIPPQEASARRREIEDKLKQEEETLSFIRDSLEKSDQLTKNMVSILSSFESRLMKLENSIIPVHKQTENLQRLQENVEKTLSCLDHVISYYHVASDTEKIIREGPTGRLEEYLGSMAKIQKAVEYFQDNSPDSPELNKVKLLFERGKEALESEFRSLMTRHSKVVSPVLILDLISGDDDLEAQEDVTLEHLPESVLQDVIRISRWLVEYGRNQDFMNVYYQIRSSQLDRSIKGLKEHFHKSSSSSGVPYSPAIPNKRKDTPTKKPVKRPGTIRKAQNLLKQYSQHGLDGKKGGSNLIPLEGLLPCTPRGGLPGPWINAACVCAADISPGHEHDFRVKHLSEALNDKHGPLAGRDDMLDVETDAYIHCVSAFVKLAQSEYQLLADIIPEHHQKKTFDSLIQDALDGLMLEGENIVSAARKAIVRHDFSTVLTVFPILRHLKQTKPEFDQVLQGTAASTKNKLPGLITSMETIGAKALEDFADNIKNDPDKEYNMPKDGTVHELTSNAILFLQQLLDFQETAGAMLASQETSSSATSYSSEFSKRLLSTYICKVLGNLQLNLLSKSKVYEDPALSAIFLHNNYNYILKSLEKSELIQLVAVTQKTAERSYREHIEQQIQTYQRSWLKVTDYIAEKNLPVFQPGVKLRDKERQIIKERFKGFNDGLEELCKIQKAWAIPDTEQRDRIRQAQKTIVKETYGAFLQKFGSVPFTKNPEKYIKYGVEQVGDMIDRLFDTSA
UniProt Q96CS3: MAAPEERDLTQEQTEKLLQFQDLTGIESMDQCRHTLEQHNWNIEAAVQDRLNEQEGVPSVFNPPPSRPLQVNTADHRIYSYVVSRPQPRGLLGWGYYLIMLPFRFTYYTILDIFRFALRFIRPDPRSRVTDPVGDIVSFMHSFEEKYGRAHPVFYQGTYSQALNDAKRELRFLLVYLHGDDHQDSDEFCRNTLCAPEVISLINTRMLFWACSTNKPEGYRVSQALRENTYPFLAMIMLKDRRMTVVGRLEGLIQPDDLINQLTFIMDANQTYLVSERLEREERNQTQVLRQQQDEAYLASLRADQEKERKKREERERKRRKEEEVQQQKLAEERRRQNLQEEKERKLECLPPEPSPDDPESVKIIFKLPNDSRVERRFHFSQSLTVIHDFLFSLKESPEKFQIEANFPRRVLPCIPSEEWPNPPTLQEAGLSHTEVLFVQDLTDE
UniProt P15311, whole entry, looked up: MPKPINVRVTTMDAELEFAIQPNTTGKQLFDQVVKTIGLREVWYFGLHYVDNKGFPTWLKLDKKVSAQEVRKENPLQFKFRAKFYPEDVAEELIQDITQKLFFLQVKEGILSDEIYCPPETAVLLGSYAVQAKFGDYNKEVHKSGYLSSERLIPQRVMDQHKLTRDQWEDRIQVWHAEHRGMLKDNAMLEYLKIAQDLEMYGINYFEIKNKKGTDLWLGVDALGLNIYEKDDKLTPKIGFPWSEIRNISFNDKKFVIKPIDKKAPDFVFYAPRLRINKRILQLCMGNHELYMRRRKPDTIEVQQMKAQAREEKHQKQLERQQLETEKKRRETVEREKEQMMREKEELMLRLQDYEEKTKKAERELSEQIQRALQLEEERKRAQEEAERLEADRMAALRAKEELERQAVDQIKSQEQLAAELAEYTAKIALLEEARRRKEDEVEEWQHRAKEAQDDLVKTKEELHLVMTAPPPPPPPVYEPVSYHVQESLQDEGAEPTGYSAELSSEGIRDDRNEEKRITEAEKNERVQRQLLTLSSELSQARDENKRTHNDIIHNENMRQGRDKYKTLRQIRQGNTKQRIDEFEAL
UniProt P16930: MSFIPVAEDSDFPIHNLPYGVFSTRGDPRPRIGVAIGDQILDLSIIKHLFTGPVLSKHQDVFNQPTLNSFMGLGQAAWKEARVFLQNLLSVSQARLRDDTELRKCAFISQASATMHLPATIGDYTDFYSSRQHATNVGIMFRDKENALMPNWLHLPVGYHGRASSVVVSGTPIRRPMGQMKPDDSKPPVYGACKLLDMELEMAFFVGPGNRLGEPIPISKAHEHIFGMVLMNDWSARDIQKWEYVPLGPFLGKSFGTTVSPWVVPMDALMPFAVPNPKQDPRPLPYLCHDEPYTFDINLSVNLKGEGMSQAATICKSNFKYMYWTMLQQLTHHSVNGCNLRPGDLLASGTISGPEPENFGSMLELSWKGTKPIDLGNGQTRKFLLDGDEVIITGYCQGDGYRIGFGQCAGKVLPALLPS
UniProt Q5RKV6, whole entry, looked up: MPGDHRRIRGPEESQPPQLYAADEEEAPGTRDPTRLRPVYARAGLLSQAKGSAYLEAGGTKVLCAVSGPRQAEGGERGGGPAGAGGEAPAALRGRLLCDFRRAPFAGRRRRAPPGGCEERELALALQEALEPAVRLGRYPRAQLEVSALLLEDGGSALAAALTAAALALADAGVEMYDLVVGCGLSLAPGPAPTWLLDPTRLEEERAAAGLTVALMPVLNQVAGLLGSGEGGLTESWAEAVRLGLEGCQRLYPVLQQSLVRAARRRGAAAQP
UniProt P43268: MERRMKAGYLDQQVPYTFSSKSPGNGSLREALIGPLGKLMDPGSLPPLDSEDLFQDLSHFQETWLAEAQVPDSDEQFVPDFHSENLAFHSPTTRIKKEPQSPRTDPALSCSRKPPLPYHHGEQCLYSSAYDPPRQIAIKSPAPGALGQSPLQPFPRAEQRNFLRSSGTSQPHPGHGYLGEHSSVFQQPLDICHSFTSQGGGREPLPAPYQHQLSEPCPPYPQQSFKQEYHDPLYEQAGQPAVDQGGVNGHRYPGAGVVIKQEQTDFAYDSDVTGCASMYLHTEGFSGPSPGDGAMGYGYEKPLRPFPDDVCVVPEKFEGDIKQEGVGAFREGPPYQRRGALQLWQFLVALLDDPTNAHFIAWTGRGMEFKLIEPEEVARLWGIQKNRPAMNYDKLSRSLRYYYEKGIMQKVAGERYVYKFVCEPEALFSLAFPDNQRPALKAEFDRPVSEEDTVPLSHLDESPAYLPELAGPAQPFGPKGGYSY
UniProt Q9NQT5, whole entry, looked up: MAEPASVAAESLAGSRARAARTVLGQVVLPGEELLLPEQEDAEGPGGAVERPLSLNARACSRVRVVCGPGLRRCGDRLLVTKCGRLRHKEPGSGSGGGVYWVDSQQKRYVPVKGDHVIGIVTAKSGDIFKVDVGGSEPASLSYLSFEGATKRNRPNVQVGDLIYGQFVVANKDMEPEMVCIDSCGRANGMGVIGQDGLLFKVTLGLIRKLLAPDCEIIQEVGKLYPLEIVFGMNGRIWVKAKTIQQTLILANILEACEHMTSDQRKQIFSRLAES
UniProt Q13158: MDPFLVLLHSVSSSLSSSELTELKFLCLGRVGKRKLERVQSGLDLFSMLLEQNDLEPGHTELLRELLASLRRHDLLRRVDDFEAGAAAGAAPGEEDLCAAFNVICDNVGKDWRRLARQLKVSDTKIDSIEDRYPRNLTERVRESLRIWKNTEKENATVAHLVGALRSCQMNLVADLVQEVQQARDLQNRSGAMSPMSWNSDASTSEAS
UniProt Q7Z2K6: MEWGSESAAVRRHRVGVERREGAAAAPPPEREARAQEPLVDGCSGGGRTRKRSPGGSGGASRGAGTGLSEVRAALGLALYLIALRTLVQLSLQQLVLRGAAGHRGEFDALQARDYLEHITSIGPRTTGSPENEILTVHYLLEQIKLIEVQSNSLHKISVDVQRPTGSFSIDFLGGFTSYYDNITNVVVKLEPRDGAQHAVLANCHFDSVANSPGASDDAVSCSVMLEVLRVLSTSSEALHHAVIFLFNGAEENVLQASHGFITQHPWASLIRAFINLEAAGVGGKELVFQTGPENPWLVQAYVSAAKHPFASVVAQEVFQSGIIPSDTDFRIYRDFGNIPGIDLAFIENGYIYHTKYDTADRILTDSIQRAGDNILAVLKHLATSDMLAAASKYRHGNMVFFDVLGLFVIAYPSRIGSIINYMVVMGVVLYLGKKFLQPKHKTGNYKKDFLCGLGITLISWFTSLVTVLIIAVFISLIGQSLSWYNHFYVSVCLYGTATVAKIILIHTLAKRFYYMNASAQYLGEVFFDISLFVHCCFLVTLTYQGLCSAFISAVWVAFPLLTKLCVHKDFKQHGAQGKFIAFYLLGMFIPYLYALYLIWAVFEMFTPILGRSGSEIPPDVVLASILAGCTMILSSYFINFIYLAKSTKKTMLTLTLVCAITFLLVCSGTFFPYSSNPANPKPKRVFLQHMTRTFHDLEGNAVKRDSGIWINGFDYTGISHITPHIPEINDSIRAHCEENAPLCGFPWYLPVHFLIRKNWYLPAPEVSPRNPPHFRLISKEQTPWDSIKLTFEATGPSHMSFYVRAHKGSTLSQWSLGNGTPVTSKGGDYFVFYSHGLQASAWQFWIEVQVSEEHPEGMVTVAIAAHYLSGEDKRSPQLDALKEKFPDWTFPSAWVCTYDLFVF
UniProt Q86YB8: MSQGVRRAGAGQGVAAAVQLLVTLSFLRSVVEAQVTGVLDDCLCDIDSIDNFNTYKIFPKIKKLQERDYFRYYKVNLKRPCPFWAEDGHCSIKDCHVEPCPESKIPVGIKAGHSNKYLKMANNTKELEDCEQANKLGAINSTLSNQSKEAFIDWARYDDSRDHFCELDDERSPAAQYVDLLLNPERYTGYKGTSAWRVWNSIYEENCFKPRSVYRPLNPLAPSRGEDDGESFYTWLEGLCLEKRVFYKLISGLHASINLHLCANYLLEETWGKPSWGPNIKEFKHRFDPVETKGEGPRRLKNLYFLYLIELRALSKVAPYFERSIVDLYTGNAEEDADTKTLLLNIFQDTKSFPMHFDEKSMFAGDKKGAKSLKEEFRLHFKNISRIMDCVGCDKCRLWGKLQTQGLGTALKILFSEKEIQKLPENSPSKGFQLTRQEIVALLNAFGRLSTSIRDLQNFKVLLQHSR
UniProt Q96A26: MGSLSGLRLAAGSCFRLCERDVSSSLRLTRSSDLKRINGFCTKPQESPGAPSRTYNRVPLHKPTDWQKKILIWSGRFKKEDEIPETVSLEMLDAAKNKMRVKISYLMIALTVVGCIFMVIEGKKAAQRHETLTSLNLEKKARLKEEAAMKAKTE
UniProt Q01469, whole entry, looked up: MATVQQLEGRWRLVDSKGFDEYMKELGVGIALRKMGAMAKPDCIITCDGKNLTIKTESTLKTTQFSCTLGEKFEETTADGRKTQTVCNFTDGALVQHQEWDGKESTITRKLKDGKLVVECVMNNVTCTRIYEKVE
UniProt Q96ND0: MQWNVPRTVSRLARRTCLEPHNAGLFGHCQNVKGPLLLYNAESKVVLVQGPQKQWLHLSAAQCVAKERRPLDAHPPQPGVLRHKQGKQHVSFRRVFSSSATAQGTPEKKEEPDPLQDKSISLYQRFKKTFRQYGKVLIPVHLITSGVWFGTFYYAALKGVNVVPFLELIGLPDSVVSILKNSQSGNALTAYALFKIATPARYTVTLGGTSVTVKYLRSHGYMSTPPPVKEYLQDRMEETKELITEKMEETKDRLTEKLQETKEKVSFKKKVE

Columns and labels:
Assay in all cases: log2 fold change, soluble protein after heating vs DMSO (PISA); higher = thermal stabilisation; K562 lysate, 10 uM; active = over 0.2 and 3.5 SD of the protein, either way, in both replicates (recomputed)
[1] = compound: NCC(=O)Nc1ccc(-n2nc(C(F)(F)F)cc2-c2ccc3c(ccc4ccccc43)c2)cc1
Method in brief: (§1)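 K562 pellets were dounce-homogenised in PBS pH 7.4 with 1 mM MgCl2, and the crude extract at 1 mg/mL protein was treated with 10 μM compound for 30 min. Aliquots were heated for 3 min across 48°C-58°C, pooled, and brought to 0.5% NP-40 at 4°C; soluble protein was the supernatant after 21,000xg for 90 min. Soluble protein was quantified by TMTpro 16plex LC-MS/MS with channel sums equalised, and reported as log2 fold change in thermal stability against DMSO controls, with values from duplicates.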

vorinostat = compound: O=C(CCCCCCC(=O)Nc1ccccc1)NO [vorinostat]
Method in brief: as §1

silmitasertib = compound: O=C(O)c1ccc2c(c1)nc(Nc1cccc(Cl)c1)c1ccncc12 [silmitasertib]
Method in brief: as §1

[2] = compound: O=C1NC(=O)C(c2cnc3ccccn23)=C1c1cn2c3c(cc(F)cc13)CN(C(=O)N1CCCCC1)CC2
Method in brief: as §1

entospletinib = compound: c1cn2cc(-c3ccc4cn[nH]c4c3)nc(Nc3ccc(N4CCOCC4)cc3)c2n1 [entospletinib]
Method in brief: as §1

Measured: log2 fold change

FAM136A (UniProt Q96C01)
inactive: [1] -0.032 | vorinostat 0.097 | silmitasertib -0.013 | [2] 0.015 | entospletinib -0.123

ERO1A (UniProt Q96HE7)
inactive: [1] 0.001 | vorinostat 0.128 | silmitasertib -0.002 | [2] -0.027 | entospletinib -0.027

EXOC2 (UniProt Q96KP1)
inactive: [1] -0.012 | silmitasertib 0.031 | [2] 0.022 | entospletinib 0.024
active: vorinostat -0.361

ESYT2 (UniProt H7BXI1)
active: vorinostat 0.243
inactive: [1] -0.041 | silmitasertib -0.002 | [2] -0.002 | entospletinib 0.019

FAAP100 (UniProt Q0VG06)
inactive: [1] -0.271 | vorinostat -0.203 | silmitasertib -0.009 | [2] 0.002 | entospletinib 0.012

EYA3 (UniProt Q99504)
inactive: [1] 0.03 | vorinostat 0.019 | silmitasertib 0.018 | [2] 0.018 | entospletinib -0.002

EXOC7 (UniProt Q9UPT5)
inactive: [1] 0.062 | vorinostat -0.086 | silmitasertib 0.025 | [2] 0.023 | entospletinib -0.004

FAF2 (UniProt Q96CS3)
inactive: [1] 0.051 | vorinostat -0.04 | silmitasertib 0.043 | [2] 0.009 | entospletinib -0.039

FAM117A (UniProt Q9C073)
inactive: [1] -0.029 | vorinostat -0.154 | silmitasertib 0.018 | [2] -0.004 | entospletinib 0.035

EXOC5 (UniProt O00471)
active: vorinostat -0.293
inactive: [1] 0.036 | silmitasertib 0.036 | [2] 0.002 | entospletinib 0.025

EZR (UniProt P15311)
inactive: [1] 0.003 | vorinostat 0.127 | silmitasertib 0.004 | [2] -0.017 | entospletinib 0.023

FAH (UniProt P16930)
inactive: [1] -0.011 | vorinostat 0.107 | silmitasertib -0.033 | [2] 0.052 | entospletinib -0.008

EXOSC6 (UniProt Q5RKV6)
inactive: [1] 0.037 | vorinostat 0.169 | silmitasertib -0.003 | [2] 0.019 | entospletinib -0.051

F5 (UniProt P12259)
inactive: [1] -0.074 | vorinostat 0.105 | silmitasertib -0.002 | [2] 0.034 | entospletinib 0.049

ERLIN2 (UniProt O94905)
inactive: [1] -0.012 | vorinostat 0.032 | silmitasertib 0.019 | [2] -0.005 | entospletinib 0.016

ETV4 (UniProt P43268)
inactive: [1] -0.013 | vorinostat -0.077 | silmitasertib -0.227 | [2] -0.061 | entospletinib -0.009

EXOSC3 (UniProt Q9NQT5)
inactive: [1] 0.019 | vorinostat -0.191 | silmitasertib 0.053 | [2] -0.044 | entospletinib -0.035

EXT2 isoform 3 (UniProt Q93063)
inactive: [1] 0.059 | vorinostat 0.103 | silmitasertib 0.101 | [2] -0.013 | entospletinib 0.037

FADD (UniProt Q13158)
inactive: [1] 0.065 | vorinostat 0.09 | silmitasertib -0.068 | [2] 0.065 | entospletinib -0.051

FAM49B (UniProt Q9NUQ9)
inactive: [1] -0.029 | vorinostat 0.068 | silmitasertib 0.018 | [2] 0.021 | entospletinib 0.011

ERMP1 (UniProt Q7Z2K6)
inactive: [1] -0.033 | vorinostat 0.131 | silmitasertib -0.021 | [2] 0.015 | entospletinib -0.057

ERO1B (UniProt Q86YB8)
inactive: [1] 0.095 | vorinostat 0.047 | silmitasertib -0.019 | [2] 0 | entospletinib -0.066

FAM162A (UniProt Q96A26)
inactive: [1] 0.046 | vorinostat 0.085 | silmitasertib -0.033 | [2] 0.002 | entospletinib 0.005

Two entries picked at random from the list so far, as already listed:
FAM117A (UniProt Q9C073)
inactive: [1] -0.029 | vorinostat -0.154 | silmitasertib 0.018 | [2] -0.004 | entospletinib 0.035

FADD (UniProt Q13158)
inactive: [1] 0.065 | vorinostat 0.09 | silmitasertib -0.068 | [2] 0.065 | entospletinib -0.051

Further entries.

FAM118B (UniProt Q9BPY3)
inactive: [1] 0 | silmitasertib 0.018 | [2] 0 | entospletinib -0.005
active: vorinostat -0.273

FABP5 (UniProt Q01469)
inactive: [1] -0.04 | vorinostat 0.099 | silmitasertib -0.02 | [2] -0.022 | entospletinib -0.018

FAM210A (UniProt Q96ND0)
inactive: [1] -0.005 | vorinostat 0.053 | silmitasertib 0.066 | [2] 0.01 | entospletinib 0.021
